PubChem BioAssay AID1224826, NIAID, 2016
The deposit covers about 17,000 reagents; this is a random part of them. About 1,110 of all reagents (6.6%) count as active. 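Active means lowered or raised reporter signal; replicate intensities are raw and not normalised per plate.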 The numbers tell different reagents against one gene apart. Not all columns of the deposit are shown.

Screen: 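Regulators of Tlr4 signalling leading to Tnf-alpha expression in macrophages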 (primary screen)
System: RAW264.7 G9 macrophages from mouse bearing reporters for p65 (GFP) and the Tnf promoter (mCherry)
Reagents: siRNA pool against mouse genes, 100 nM
Time to read-out: 16 h of LPS stimulation, after 2 days of siRNA transfection
Challenge: bacterial lipopolysaccharide (Salmonella minnesota R595), 10 ng/ml
Detection: 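Nuclear mCherry signal of the Tnf promoter reporter measured by imaging after background removal, scaled to each plate median and turned into robust z-scores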
Reading the numbers: Tnf reporter robust z-score: higher = stronger Tnf promoter reporter signal after LPS
Hit rule: 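a well counts as active at a score of -1.3 or below (Tlr4 knock-down control median) or above 3 (raised signal); controls and wells holding fewer than 50 cells are excluded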
Meaning of the calls: active = Tnf reporter clearly lowered or raised; inactive = no clear change in Tnf reporter

What did the screen give for Or8u9?
Tnf reporter robust z-score: -0.03; fewer than 50 cells in well: enough cells in well; activity call: inactive

For Zan, how do the results read?
Tnf reporter robust z-score: 1.04; fewer than 50 cells in well: enough cells in well; activity call: inactive

What is on record for Mrpl33?
Tnf reporter robust z-score: -1.13; fewer than 50 cells in well: enough cells in well; activity call: inactive

Which result is listed for Gapdh #1?
Tnf reporter robust z-score: -0.8; fewer than 50 cells in well: enough cells in well; activity call: inactive

With Gapdh #2, what does the deposit list?
Tnf reporter robust z-score: -1.22; fewer than 50 cells in well: enough cells in well; activity call: inactive

With Icam5, what does the deposit list?
Tnf reporter robust z-score: -0.4; fewer than 50 cells in well: enough cells in well; activity call: inactive

What did the screen give for Gm10283?
Tnf reporter robust z-score: -1; fewer than 50 cells in well: enough cells in well; activity call: inactive

What did the screen give for Eps8l1?
Tnf reporter robust z-score: -0.45; fewer than 50 cells in well: enough cells in well; activity call: inactive

What is on record for Ctsq?
Tnf reporter robust z-score: -1.35; fewer than 50 cells in well: enough cells in well; activity call: active

For Wnt6, what does the deposit list?
Tnf reporter robust z-score: 0.04; fewer than 50 cells in well: enough cells in well; activity call: inactive

For Dipk2b, what does the deposit list?
Tnf reporter robust z-score: -1; fewer than 50 cells in well: enough cells in well; activity call: inactive

Which result is listed for 4921504E06Rik?
Tnf reporter robust z-score: -1.34; fewer than 50 cells in well: enough cells in well; activity call: active

What is on record for Lnpk?
Tnf reporter robust z-score: 0.49; fewer than 50 cells in well: enough cells in well; activity call: inactive

What is on record for Dusp13b?
Tnf reporter robust z-score: 0.06; fewer than 50 cells in well: enough cells in well; activity call: inactive

Single entries from the list.
Entry for Gm10283 under “fewer than 50 cells in well”: enough cells in well
For “Tnf reporter robust z-score”, Dipk2b is entered as -1
